According to the supplement of paper PMC10849652:
The list shows a part of the results.

By UniProt entry, the sequences of proteins in these tests, tags left out. Where a name states a change or a piece, a line headed by the entry shows the natural chain unless it says otherwise.
UniProt P25098: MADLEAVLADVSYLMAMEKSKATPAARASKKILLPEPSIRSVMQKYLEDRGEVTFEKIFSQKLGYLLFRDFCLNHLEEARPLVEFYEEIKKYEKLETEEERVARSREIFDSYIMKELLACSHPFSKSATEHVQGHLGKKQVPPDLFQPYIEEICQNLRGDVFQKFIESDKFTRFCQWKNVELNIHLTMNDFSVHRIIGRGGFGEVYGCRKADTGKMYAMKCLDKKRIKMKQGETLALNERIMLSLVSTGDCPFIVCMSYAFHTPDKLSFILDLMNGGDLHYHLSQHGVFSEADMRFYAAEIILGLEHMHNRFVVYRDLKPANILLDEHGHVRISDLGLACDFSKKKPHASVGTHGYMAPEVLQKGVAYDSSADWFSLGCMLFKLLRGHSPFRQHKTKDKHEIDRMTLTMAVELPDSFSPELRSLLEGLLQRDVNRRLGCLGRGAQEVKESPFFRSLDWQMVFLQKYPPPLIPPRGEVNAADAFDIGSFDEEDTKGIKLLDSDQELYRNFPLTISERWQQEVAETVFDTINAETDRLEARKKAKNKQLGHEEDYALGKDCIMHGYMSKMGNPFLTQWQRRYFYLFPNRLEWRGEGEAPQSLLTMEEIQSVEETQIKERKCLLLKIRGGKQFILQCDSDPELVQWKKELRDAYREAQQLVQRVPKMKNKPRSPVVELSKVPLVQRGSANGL
UniProt O75496: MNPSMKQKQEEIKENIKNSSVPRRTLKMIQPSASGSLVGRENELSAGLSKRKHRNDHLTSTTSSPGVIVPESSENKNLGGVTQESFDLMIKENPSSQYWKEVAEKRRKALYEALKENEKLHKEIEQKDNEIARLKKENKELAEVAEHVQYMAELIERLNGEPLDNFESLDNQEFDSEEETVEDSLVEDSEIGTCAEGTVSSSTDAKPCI
UniProt P62873, whole entry, looked up: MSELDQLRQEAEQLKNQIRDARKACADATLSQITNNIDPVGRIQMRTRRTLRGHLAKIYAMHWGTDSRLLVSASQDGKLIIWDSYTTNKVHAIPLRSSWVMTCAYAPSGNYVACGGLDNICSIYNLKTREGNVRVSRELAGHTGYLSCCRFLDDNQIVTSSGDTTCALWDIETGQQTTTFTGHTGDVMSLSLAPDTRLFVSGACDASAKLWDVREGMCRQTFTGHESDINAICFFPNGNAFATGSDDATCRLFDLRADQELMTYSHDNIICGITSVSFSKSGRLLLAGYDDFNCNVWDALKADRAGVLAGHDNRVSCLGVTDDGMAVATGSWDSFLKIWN
UniProt P46926: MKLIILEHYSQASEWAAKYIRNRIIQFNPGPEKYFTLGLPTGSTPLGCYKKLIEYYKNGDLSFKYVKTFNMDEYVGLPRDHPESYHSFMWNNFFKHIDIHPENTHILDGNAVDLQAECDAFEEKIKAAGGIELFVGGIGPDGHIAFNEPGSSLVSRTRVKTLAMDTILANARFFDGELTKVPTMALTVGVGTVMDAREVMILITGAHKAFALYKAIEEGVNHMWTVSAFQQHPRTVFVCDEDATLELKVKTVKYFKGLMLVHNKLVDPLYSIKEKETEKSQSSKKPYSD
UniProt Q14344, whole entry, looked up: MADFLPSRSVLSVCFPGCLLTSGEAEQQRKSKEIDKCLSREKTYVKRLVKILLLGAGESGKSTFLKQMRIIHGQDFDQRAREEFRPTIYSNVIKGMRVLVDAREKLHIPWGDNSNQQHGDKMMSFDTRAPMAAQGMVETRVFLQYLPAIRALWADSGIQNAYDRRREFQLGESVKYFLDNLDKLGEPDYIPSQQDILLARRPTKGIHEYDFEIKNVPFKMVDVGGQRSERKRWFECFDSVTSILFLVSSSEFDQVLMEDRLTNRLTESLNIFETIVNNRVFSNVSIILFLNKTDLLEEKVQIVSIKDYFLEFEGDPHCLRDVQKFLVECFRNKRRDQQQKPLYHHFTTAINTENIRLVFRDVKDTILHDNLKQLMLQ
UniProt P17174: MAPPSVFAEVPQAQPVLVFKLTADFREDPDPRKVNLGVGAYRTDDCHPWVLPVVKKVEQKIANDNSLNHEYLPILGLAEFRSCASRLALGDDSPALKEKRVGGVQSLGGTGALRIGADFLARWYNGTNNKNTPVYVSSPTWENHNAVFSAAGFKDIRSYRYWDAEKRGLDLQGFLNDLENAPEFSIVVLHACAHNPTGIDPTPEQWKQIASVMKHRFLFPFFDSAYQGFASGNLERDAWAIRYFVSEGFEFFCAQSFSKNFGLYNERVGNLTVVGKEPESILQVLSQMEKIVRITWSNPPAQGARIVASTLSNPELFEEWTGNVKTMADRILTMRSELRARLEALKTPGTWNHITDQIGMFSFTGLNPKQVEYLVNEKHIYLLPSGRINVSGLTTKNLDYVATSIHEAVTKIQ
UniProt Q9NQX3: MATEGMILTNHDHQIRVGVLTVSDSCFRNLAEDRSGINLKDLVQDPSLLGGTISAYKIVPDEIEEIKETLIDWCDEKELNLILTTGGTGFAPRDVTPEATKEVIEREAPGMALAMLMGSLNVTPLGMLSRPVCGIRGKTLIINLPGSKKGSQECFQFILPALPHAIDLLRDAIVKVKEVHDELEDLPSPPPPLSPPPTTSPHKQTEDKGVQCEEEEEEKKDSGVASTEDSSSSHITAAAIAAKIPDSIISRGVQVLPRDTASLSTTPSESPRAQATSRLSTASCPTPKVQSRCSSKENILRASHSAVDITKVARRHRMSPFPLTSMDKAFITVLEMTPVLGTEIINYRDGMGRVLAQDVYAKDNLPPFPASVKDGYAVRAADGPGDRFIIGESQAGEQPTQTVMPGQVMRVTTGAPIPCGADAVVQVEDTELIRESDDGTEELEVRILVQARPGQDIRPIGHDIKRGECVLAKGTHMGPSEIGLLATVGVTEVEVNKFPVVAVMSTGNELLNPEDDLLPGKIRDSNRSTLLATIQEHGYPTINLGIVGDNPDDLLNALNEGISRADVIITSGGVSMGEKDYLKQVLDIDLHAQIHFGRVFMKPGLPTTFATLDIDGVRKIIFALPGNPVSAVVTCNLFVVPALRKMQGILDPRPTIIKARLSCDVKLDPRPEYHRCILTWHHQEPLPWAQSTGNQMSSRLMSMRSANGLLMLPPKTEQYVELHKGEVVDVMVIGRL
UniProt Q9HC38: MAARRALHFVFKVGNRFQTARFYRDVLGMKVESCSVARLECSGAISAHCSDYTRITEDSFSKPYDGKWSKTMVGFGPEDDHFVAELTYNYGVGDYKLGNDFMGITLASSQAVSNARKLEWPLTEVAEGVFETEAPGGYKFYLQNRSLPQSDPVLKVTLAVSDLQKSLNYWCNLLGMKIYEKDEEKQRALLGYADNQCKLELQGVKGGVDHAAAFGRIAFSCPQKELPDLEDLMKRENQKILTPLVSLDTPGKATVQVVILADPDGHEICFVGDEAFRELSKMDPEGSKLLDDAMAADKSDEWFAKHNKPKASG
UniProt Q08378: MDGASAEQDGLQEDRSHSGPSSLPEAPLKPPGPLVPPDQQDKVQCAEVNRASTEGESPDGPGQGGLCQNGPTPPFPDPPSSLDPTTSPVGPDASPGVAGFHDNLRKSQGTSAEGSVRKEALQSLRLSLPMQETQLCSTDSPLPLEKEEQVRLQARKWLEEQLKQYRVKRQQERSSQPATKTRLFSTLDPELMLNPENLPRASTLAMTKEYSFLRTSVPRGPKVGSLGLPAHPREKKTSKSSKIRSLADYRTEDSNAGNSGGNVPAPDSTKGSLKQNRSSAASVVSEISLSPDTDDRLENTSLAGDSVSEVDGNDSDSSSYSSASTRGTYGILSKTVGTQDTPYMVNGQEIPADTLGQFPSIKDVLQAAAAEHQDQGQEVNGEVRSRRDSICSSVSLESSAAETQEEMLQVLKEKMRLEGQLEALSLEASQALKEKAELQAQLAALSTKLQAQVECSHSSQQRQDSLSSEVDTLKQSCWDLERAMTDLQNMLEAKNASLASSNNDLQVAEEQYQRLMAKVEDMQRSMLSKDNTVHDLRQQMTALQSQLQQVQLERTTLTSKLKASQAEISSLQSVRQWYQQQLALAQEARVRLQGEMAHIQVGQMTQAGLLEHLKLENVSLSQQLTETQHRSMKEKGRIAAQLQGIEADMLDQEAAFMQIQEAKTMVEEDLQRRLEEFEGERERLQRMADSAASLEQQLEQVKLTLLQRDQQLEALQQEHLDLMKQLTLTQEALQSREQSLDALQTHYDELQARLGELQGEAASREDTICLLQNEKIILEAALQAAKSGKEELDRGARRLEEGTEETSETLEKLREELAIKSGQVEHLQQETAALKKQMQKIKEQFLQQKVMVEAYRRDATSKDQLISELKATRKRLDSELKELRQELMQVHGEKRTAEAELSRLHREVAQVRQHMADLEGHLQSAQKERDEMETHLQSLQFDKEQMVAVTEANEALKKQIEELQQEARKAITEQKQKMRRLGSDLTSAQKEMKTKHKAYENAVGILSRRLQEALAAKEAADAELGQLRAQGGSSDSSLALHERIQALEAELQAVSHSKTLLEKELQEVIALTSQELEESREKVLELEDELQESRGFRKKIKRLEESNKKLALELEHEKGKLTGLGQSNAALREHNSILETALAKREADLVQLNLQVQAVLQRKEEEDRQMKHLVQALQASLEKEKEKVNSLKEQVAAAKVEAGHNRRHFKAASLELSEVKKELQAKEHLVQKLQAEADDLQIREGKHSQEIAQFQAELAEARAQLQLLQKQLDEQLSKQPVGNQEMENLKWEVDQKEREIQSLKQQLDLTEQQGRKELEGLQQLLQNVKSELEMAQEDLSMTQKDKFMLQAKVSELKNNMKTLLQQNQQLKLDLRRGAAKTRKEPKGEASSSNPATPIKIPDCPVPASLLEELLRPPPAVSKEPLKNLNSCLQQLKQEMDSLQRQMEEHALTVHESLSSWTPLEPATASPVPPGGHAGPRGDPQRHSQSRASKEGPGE
UniProt Q92896: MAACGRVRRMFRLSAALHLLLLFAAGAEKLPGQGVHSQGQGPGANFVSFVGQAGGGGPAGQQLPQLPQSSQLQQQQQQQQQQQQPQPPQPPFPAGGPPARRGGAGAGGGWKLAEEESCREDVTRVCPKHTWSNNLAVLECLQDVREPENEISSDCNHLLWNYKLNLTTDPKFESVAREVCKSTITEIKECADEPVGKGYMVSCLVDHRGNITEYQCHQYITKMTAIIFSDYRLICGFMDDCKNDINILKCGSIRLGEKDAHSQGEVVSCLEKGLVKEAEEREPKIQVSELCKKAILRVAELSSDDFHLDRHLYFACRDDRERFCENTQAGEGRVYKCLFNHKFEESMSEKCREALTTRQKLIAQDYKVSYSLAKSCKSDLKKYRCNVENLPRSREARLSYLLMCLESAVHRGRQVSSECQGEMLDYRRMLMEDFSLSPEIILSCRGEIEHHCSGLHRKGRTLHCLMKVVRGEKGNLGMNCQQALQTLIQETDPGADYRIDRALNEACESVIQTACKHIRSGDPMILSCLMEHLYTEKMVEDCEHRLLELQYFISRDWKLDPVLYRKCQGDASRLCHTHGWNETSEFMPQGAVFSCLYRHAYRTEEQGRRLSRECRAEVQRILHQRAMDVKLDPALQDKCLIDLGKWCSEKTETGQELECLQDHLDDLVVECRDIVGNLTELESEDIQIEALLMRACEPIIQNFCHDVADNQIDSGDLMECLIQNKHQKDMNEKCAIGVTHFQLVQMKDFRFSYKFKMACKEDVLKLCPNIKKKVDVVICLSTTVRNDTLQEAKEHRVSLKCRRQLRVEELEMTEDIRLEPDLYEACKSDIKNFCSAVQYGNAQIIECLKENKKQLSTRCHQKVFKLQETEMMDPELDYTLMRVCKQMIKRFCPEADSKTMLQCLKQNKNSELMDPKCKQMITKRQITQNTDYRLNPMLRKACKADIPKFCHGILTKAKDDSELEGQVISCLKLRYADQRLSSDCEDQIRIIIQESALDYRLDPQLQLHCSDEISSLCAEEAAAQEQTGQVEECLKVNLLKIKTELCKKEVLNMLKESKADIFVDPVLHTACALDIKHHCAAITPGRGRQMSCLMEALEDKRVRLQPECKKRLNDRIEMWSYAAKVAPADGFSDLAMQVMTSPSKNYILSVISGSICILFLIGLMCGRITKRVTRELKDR
UniProt Q86WP2: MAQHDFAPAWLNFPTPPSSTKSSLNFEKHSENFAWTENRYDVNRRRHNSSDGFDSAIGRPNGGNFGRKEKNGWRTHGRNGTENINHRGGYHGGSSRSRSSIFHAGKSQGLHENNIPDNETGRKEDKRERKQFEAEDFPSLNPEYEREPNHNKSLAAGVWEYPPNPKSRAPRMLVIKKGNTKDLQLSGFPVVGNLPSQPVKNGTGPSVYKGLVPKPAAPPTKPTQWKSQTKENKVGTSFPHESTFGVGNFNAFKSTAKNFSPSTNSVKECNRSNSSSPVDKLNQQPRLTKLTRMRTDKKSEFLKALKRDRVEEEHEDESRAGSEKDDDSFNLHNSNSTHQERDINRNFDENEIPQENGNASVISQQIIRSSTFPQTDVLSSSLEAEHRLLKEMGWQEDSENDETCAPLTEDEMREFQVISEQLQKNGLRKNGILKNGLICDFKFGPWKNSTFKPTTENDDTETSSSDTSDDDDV

Experiments:
Assay in all cases: log2 fold change, soluble protein after heating vs DMSO (PISA); higher = thermal stabilisation; K562 cells, 10 uM, 30 min; active = over 0.2 and 3.5 SD of the protein, either way, in both replicates (recomputed)
saracatinib = compound: CN1CCN(CCOc2cc(OC3CCOCC3)c3c(Nc4c(Cl)ccc5c4OCO5)ncnc3c2)CC1 [saracatinib]
Outline: (§1)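 Aliquots of K562 cells (2×10^6 cells/mL) treated with 10 μM compound for 30 min were heated for 3 min over 48°C-58°C. After pooling and extraction in PBS with 0.5% NP-40 at 4°C, soluble protein from a 21,000xg, 90 min spin was quantified by TMTpro 16plex LC-MS/MS with channel sums equalised. Thermal stability is expressed against control samples, from duplicates, as a log2 fold change.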

sotrastaurin = compound: CN1CCN(c2nc(C3=C(c4c[nH]c5ccccc45)C(=O)NC3=O)c3ccccc3n2)CC1 [sotrastaurin]
Outline: as §1

alvocidib = compound: CN1CC[C@H](c2c(O)cc(O)c3c(=O)cc(-c4ccccc4Cl)oc23)[C@H](O)C1 [alvocidib]
Outline: as §1

Tubastatin A = compound: CN1CCc2c(c3ccccc3n2Cc2ccc(C(=O)NO)cc2)C1 [Tubastatin A]
Outline: as §1

[1] = compound: CNC(=O)C1=CC=CC=C1NC2=NC(=NC=C2Cl)NC3=C(C=C(C=C3)N4CCOCC4)OC
Outline: as §1

defactinib = compound: CNC(=O)c1ccc(Nc2ncc(C(F)(F)F)c(NCc3nccnc3N(C)S(C)(=O)=O)n2)cc1 [defactinib]
Outline: as §1

rucaparib = compound: CNCc1ccc(-c2[nH]c3cc(F)cc4c3c2CCNC4=O)cc1 [rucaparib]
Outline: as §1

[2] = compound: CNc1nc(-c2ccc3c(N)n[nH]c3c2)cc(N2C[C@@H](C(=O)NC3CCCCC3)CC[C@H]2C)n1
Outline: as §1

encorafenib = compound: COC(=O)N[C@@H](C)CNc1nccc(-c2cn(C(C)C)nc2-c2cc(Cl)cc(NS(C)(=O)=O)c2F)n1 [encorafenib]
Outline: as §1

[3] = compound: COC(=O)[C@H](CCSC)NC(=O)C1=C(C=C(C=C1)NC[C@H](CS)N)C2=CC=CC=C2
Outline: as §1

filanesib = compound: CON(C)C(=O)N1N=C(c2cc(F)ccc2F)S[C@@]1(CCCN)c1ccccc1 [filanesib]
Outline: as §1

zotarolimus = compound: CO[C@H]1C[C@@H]2CC[C@@H](C)[C@@](O)(O2)C(=O)C(=O)N2CCCC[C@H]2C(=O)O[C@H]([C@H](C)C[C@@H]2CC[C@H](n3cnnn3)[C@H](OC)C2)CC(=O)[C@H](C)/C=C(\C)[C@@H](O)[C@@H](OC)C(=O)[C@H](C)C[C@H](C)/C=C/C=C/C=C/1C [zotarolimus]
Outline: as §1

idasanutlin = compound: COc1cc(C(=O)O)ccc1NC(=O)[C@@H]1N[C@@H](CC(C)(C)C)[C@](C#N)(c2ccc(Cl)cc2F)[C@H]1c1cccc(Cl)c1F [idasanutlin]
Outline: as §1

alisertib = compound: COc1cc(Nc2ncc3c(n2)-c2ccc(Cl)cc2C(c2c(F)cccc2OC)=NC3)ccc1C(=O)O [alisertib]
Outline: as §1

[4] = compound: COc1cc2nc(-c3cc(F)ccc3O)nc(N[C@@H]3CNC[C@H]3C(C)(C)O)c2cc1OC
Outline: as §1

gefitinib = compound: COc1cc2ncnc(Nc3ccc(F)c(Cl)c3)c2cc1OCCCN1CCOCC1 [gefitinib]
Outline: as §1

[5] = compound: COc1cccc2cc(-c3nc([C@H]4CC[C@H](C(=O)O)CC4)n4ncnc(N)c34)[nH]c12
Outline: as §1

lapatinib = compound: CS(=O)(=O)CCNCc1ccc(-c2ccc3ncnc(Nc4ccc(OCc5cccc(F)c5)c(Cl)c4)c3c2)o1 [lapatinib]
Outline: as §1

pictilisib = compound: CS(=O)(=O)N1CCN(Cc2cc3nc(-c4cccc5[nH]ncc45)nc(N4CCOCC4)c3s2)CC1 [pictilisib]
Outline: as §1

[6] = compound: COC1=CC=C(C=C1)CN2C=CC3=C2C=C(C=C3)C(=O)NO
Outline: as §1

Measured: log2 fold change

GNMT (UniProt Q14749)
inactive: saracatinib 0.061 | sotrastaurin -0.087 | alvocidib -0.267 | Tubastatin A 0.054 | [1] 0.196 | defactinib -0.028 | rucaparib -0.088 | [2] -0.055 | encorafenib -0.107 | [3] 0.231 | filanesib -0.034 | zotarolimus 0.136 | idasanutlin -0.331 | alisertib 0.206 | [4] -0.062 | gefitinib -0.077 | [5] 0.022 | lapatinib 0.11 | pictilisib -0.166

GRK2 (UniProt P25098)
inactive: saracatinib 0.007 | sotrastaurin -0.022 | alvocidib -0.043 | Tubastatin A -0.008 | [1] -0.056 | defactinib -0.051 | rucaparib 0 | [2] -0.007 | encorafenib 0.012 | [3] 0.016 | [6] 0.019 | filanesib -0.02 | zotarolimus 0.01 | idasanutlin -0.041 | alisertib -0.086 | [4] 0.048 | gefitinib 0 | [5] 0.034 | lapatinib -0.011 | pictilisib 0.017

GOT2 (UniProt P00505)
inactive: saracatinib 0.035 | sotrastaurin 0.042 | alvocidib -0.026 | Tubastatin A -0.01 | [1] 0.023 | defactinib -0.007 | rucaparib -0.033 | [2] -0.01 | encorafenib -0.014 | [3] 0.041 | [6] 0 | filanesib -0.044 | zotarolimus 0.003 | idasanutlin -0.007 | alisertib -0.066 | [4] 0.037 | gefitinib 0.021 | [5] 0.013 | lapatinib -0.03 | pictilisib -0.01

GID8 (UniProt Q9NWU2)
inactive: saracatinib 0.02 | sotrastaurin -0.006 | alvocidib -0.061 | Tubastatin A -0.007 | [1] -0.007 | defactinib -0.087 | rucaparib 0.035 | [2] 0.045 | encorafenib 0.025 | [3] -0.015 | [6] -0.07 | filanesib 0.071 | zotarolimus 0.033 | idasanutlin 0.022 | alisertib -0.018 | [4] -0.04 | gefitinib -0.009 | [5] -0.024 | lapatinib -0.004 | pictilisib -0.051

GMNN (UniProt O75496)
inactive: saracatinib 0.014 | sotrastaurin 0.045 | alvocidib -0.046 | Tubastatin A 0.018 | [1] -0.028 | defactinib -0.001 | rucaparib -0.043 | [2] -0.006 | encorafenib -0.021 | [3] 0.03 | [6] 0.001 | filanesib 0.014 | zotarolimus -0.017 | idasanutlin -0.067 | alisertib -0.056 | [4] 0.009 | gefitinib 0 | [5] 0 | lapatinib -0.003 | pictilisib 0.023

GNB1 (UniProt P62873)
inactive: saracatinib -0.005 | sotrastaurin 0.121 | alvocidib -0.19 | Tubastatin A 0.102 | [1] 0.032 | defactinib -0.028 | rucaparib 0 | [2] 0.085 | encorafenib -0.055 | [3] -0.04 | [6] 0.019 | filanesib -0.1 | zotarolimus 0.043 | idasanutlin 0.054 | alisertib -0.098 | [4] 0.03 | gefitinib 0.082 | [5] -0.01 | lapatinib 0 | pictilisib 0.083

GNPDA1 (UniProt P46926)
inactive: saracatinib 0.037 | sotrastaurin 0.071 | alvocidib 0.042 | Tubastatin A -0.026 | [1] -0.03 | defactinib -0.001 | rucaparib -0.021 | [2] -0.028 | encorafenib -0.019 | [3] 0.002 | [6] -0.106 | filanesib -0.008 | zotarolimus -0.001 | idasanutlin -0.018 | alisertib -0.013 | [4] -0.006 | gefitinib -0.013 | [5] 0.089 | lapatinib 0.008 | pictilisib 0.053

Reprinted at random: 2 records from the list
GNPDA1 (UniProt P46926)
inactive: saracatinib 0.037 | sotrastaurin 0.071 | alvocidib 0.042 | Tubastatin A -0.026 | [1] -0.03 | defactinib -0.001 | rucaparib -0.021 | [2] -0.028 | encorafenib -0.019 | [3] 0.002 | [6] -0.106 | filanesib -0.008 | zotarolimus -0.001 | idasanutlin -0.018 | alisertib -0.013 | [4] -0.006 | gefitinib -0.013 | [5] 0.089 | lapatinib 0.008 | pictilisib 0.053

GNMT (UniProt Q14749)
inactive: saracatinib 0.061 | sotrastaurin -0.087 | alvocidib -0.267 | Tubastatin A 0.054 | [1] 0.196 | defactinib -0.028 | rucaparib -0.088 | [2] -0.055 | encorafenib -0.107 | [3] 0.231 | filanesib -0.034 | zotarolimus 0.136 | idasanutlin -0.331 | alisertib 0.206 | [4] -0.062 | gefitinib -0.077 | [5] 0.022 | lapatinib 0.11 | pictilisib -0.166

(continued)

GNA13 (UniProt Q14344)
inactive: saracatinib -0.019 | sotrastaurin 0.015 | alvocidib -0.024 | Tubastatin A 0.034 | [1] -0.006 | defactinib -0.035 | rucaparib 0.002 | [2] 0.021 | encorafenib 0 | [3] -0.046 | [6] -0.033 | filanesib 0.065 | zotarolimus -0.001 | idasanutlin -0.09 | alisertib -0.01 | [4] 0.113 | gefitinib 0.07 | [5] 0.037 | lapatinib 0.008 | pictilisib 0.052

GOT1 (UniProt P17174)
inactive: saracatinib 0.033 | sotrastaurin 0.038 | alvocidib -0.01 | Tubastatin A 0.003 | [1] -0.036 | defactinib -0.006 | rucaparib -0.047 | [2] -0.01 | encorafenib -0.009 | [3] 0.01 | [6] -0.008 | filanesib -0.026 | zotarolimus -0.004 | idasanutlin 0.014 | alisertib -0.058 | [4] 0.016 | gefitinib -0.014 | [5] 0.017 | lapatinib -0.034 | pictilisib -0.003

GPHN isoform 2 (UniProt Q9NQX3)
inactive: saracatinib 0.072 | sotrastaurin 0.06 | alvocidib -0.033 | Tubastatin A -0.023 | [1] -0.006 | defactinib -0.021 | rucaparib 0.055 | [2] -0.025 | encorafenib -0.039 | [3] -0.007 | [6] 0.013 | filanesib 0.021 | zotarolimus -0.003 | idasanutlin -0.019 | alisertib -0.026 | [4] 0.037 | gefitinib 0.004 | [5] 0.065 | lapatinib -0.015 | pictilisib 0.051

GLOD4 isoform 2 (UniProt Q9HC38)
inactive: saracatinib -0.004 | sotrastaurin -0.01 | alvocidib -0.108 | Tubastatin A -0.017 | [1] 0.046 | defactinib -0.082 | rucaparib -0.071 | [2] 0.003 | encorafenib 0.008 | [3] 0 | [6] -0.002 | filanesib -0.089 | zotarolimus 0.038 | idasanutlin -0.071 | alisertib -0.006 | [4] 0.027 | gefitinib 0.023 | [5] 0.012 | lapatinib -0.002 | pictilisib 0.009

GNB1L (UniProt Q9BYB4)
inactive: saracatinib 0.01 | sotrastaurin 0.05 | alvocidib -0.025 | Tubastatin A -0.072 | [1] -0.044 | defactinib -0.013 | rucaparib -0.073 | [2] -0.009 | encorafenib -0.037 | [3] 0.033 | [6] 0.007 | filanesib 0.003 | zotarolimus -0.037 | idasanutlin -0.026 | alisertib -0.044 | [4] 0.047 | gefitinib 0.011 | [5] 0.041 | lapatinib -0.052 | pictilisib 0.024

GOLGA3 (UniProt Q08378)
inactive: saracatinib 0.001 | sotrastaurin -0.026 | alvocidib -0.05 | Tubastatin A -0.018 | [1] 0.028 | defactinib -0.021 | rucaparib 0.012 | [2] -0.052 | encorafenib -0.029 | [3] -0.011 | [6] 0.025 | filanesib -0.013 | zotarolimus 0.031 | idasanutlin -0.04 | alisertib 0.037 | [4] -0.032 | gefitinib 0.014 | [5] -0.038 | lapatinib 0.025 | pictilisib 0.032

GRAP2 (UniProt O75791)
inactive: saracatinib -0.097 | sotrastaurin -0.141 | alvocidib -0.083 | Tubastatin A 0.109 | [1] 0.083 | defactinib -0.149 | rucaparib 0.085 | [2] 0.046 | encorafenib 0.097 | [3] -0.045 | [6] 0.111 | filanesib 0.175 | zotarolimus -0.055 | idasanutlin 0.006 | alisertib 0.023 | [4] 0.021 | gefitinib 0.152 | [5] -0.086 | lapatinib 0.034 | pictilisib 0.041

GLG1 isoform 2 (UniProt Q92896)
inactive: saracatinib 0.002 | sotrastaurin -0.005 | alvocidib 0.014 | Tubastatin A -0.039 | [1] -0.023 | defactinib 0.001 | rucaparib -0.053 | [2] -0.053 | encorafenib -0.015 | [3] 0.028 | [6] 0.031 | filanesib -0.048 | zotarolimus -0.049 | idasanutlin -0.01 | alisertib -0.018 | [4] -0.022 | gefitinib -0.004 | [5] 0.029 | lapatinib 0.029 | pictilisib 0.041

GPBP1 isoform 2 (UniProt Q86WP2)
inactive: saracatinib 0.066 | sotrastaurin -0.011 | alvocidib 0.025 | Tubastatin A 0.025 | [1] 0.032 | defactinib 0.004 | rucaparib -0.001 | [2] -0.002 | encorafenib -0.14 | [3] 0.145 | [6] -0.009 | filanesib -0.01 | zotarolimus -0.093 | idasanutlin 0.098 | alisertib -0.097 | [4] -0.084 | gefitinib 0.03 | [5] -0.048 | lapatinib 0.027 | pictilisib -0.045
